Results as given in patent US6534277B1, “Method for identifying a compound to be tested for an ability to reduce immune rejection by determining Stat4 and Stat6 proteins” (Millennium Pharmaceuticals, Inc., priority 2000, dated 2003).
At least one compound was matched to its structure with a doubt left.

Columns and labels:
[1] = tested on: CD154 expression by CD3 mAb-activated CD4+ splenic T cells; assay: Activation-induced CD154 expression by CD4+ T cells, dual color flow cytometry; assay type: cell-based, mouse; conditions: 7 hr, plate-bound CD3 mAb, drug concentrations as b343 (10 μM lactacystin, 10 μM MG-273)
Protocol: Six-well plates (Costar) were pre-coated overnight with 1 μg/ml of […] anti-mouse CD3 mAb (2C11). After washing with media (RPMI supplemented with 10% fetal bovine serum, 50 U/ml penicillin, 50 μg/ml streptomycin, 2 mM glutamine and 50 μM 2-mercaptoethanol) one ml of media containing 2× final drug concentration was added to each well. After testing of a range of concentrations of each agent, the optimal final physiologic drug concentrations for the data to be reported were 125 ng/ml cyclosporin A, 20 ng/ml rapamycin. 100 μg/ml methylprednisolone, 1 μM mycophenolate mofetil, 10 μm lactacystin and 10 μM MG-273. Cells were obtained from mechanically disrupted spleens and, after collection by centrifugation and washing once with media, one ml aliquots containing two million viable splenocytes were added to each well. Cultures were incubated at 37° C. in 5% CO2 for 7 hr. and were then diluted two-fold with chilled media containing 0.1% sodium azide (FACS media). Cells were collected by centrifugation at 4° C., resuspended in FACS media containing 1 μg Fc Block (PharMingen) and incubated on ice for 15 min. Samples were then split and either a mixture of 1 μg each of FITC-conjugated CD4-specific mAb and PE-conjugated control hamster IgG mAb or FITC-conjugated CD4-specific mAb and PE-conjugated CD154-specific mAb were added. After a 30 min incubation on ice, cells were washed twice and analyzed on a Becton Dickinson FACScan using Cell Quest software. Viable CD4+ lymphocytes were gated using a combination of forward/side scatter and CD4 staining.

[2] = tested on: BALB/c cardiac allograft in B6/129 wild-type mice; assay: Heterotopic cardiac allograft survival, BALB/c donors into B6/129 wild-type recipients; assay type: in vivo, mouse; conditions: with CD154 mAb/DST; rapamycin 0.2 mg/kg/d i.p., cyclosporin A 10 mg/kg/d i.p., methylprednisolone 1 mg/kg i.p., PS-519 1 mg/kg/d i.p.; p<0.001
Protocol: Heterotopic cardiac allografting was performed with anastomoses to the abdominal aorta and vena cava (Hancock et al., 1998, Nature Medicine 4:1392-1396), using BALB/c donors and B6/129 wild-type or […] mice as recipients. Recipients were treated with hamster IgG or hamster anti-mouse (CD40L mAb; 250 μg, administered intravenously) plus DST (5×10^6 splenic mononuclear cells) at the time of transplantation (Hancock et al., 1998, Nature Medicine 4:1392-1396).
Heterotopic cardiac allografting was performed with anastomoses to the abdominal aorta and vena cava (Hancock, W. W. et al., 1998, Nature Medicine 4:1392-1396), using BALB/c donors and B6/129 wild-type or NF-κB/p50 KO mice as recipients (n=6/group). Recipients were treated with hamster IgG or hamster anti-mouse CD154 mAb (250 μg, i.v.) plus DST (“donor specific transfusion”; 5×10^6 splenic mononuclear cells) at the time of transplantation (Hancock, W. W. et al., 1998, Nature Medicine 4:1392-1396). […] Graft survival was monitored by daily palpation, and rejection was confirmed by laparotomy and histologic evaluation.
Heterotopic cardiac allografting was performed with anastomoses to the abdominal aorta and vena cava, using BALB/c donors and B6/129 wild-type or Stat-6 KO mice as recipients (n=6/group). […] Graft survival was monitored by daily palpation and rejection was confirmed by laparotomy and histologic evaluation.

Row | Structure (SMILES) | effect on activation-induced CD154 expression, in words [1] | effect on activation-induced CD154 expression, in words ([1]; listed as Methylprednisolone) | effect of concomitant agent on the effects (efficacy) of CD154 mAb therapy on allograft survival [2]
1 | C[C@H]1C[C@@H]2[C@H]([C@@H](O)C[C@@]3(C)[C@H]2CC[C@]3(O)C(=O)CO)[C@@]2(C)C=CC(=O)C=C12 [methylprednisolone, 6α-methylprednisolone] | significantly inhibited | almost complete inhibition | blocked
2 | CO[C@H]1C[C@@H]2CC[C@@H](C)[C@@](O)(O2)C(=O)C(=O)N2CCCC[C@H]2C(=O)O[C@H]([C@H](C)C[C@@H]2CC[C@@H](O)[C@H](OC)C2)CC(=O)[C@H](C)/C=C(\C)[C@@H](O)[C@@H](OC)C(=O)[C@H](C)C[C@H](C)/C=C/C=C/C=C/1C [rapamycin] | no significant inhibitory effect | – | –
